Reference: PMC9500237
Results are given in words; binding and its absence hold for the method and conditions named. Binding seen in cells or lysates may run through a third protein. Some entries that bind do so weakly or less than the wild type. For some assays here: Sequences can lack the tags named with a protein.

By UniProt entry, the sequences of proteins in these tests, tags left out.
UniProt Q8N122: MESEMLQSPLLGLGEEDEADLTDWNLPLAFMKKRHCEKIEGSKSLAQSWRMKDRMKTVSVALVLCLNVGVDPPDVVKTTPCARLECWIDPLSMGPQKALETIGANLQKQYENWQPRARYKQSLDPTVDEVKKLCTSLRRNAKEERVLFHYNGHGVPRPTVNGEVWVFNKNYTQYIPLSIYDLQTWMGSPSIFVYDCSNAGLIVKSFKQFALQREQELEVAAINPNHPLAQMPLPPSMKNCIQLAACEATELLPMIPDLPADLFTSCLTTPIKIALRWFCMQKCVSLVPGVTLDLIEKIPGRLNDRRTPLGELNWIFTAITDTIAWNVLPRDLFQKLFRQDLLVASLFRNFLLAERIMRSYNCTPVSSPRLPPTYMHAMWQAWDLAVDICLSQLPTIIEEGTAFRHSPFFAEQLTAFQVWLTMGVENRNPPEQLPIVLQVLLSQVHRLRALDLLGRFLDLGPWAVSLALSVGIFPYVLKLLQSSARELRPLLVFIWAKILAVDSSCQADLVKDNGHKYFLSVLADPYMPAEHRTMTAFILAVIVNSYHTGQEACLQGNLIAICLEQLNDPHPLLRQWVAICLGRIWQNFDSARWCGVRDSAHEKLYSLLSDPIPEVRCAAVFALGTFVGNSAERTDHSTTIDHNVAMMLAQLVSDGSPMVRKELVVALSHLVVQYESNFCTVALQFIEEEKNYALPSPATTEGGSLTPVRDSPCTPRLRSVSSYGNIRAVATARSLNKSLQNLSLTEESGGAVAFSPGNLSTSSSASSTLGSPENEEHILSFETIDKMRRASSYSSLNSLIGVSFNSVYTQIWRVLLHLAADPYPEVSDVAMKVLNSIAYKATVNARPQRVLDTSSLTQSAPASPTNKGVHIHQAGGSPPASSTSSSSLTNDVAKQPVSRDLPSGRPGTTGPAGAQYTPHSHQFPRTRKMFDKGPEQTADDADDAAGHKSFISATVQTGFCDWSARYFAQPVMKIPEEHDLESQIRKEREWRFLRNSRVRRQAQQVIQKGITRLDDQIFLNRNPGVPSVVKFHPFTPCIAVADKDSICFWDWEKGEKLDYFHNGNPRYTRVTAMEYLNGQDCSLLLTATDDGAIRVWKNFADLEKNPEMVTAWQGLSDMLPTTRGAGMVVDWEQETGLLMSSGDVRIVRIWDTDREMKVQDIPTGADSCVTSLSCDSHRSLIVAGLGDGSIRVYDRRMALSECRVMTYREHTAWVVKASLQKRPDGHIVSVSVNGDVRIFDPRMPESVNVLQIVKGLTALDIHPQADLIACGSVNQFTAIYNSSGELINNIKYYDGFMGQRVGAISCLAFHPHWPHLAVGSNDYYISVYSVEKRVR

B1: Flag-Bcl-3 (protein, UniProt P20749 1-454)
chain: MPRCPAGAMDEGPVDLRTRPKAAGLPGAALPLRKRPLRAPSPEPAAPRGAAGLVVPLDPLRGGCDLPAVPGPPHGLARPEALYYPGALLPLYPTRAMGSPFPLVNLPTPLYPMMCPMEHPLSADIAMATRADEDGDTPLHIAVVQGNLPAVHRLVNLFQQGGRELDIYNNLRQTPLHLAVITTLPSVVRLLVTAGASPMALDRHGQTAAHLACEHRSPTCLRALLDSAAPGTLDLEARNYDGLTALHVAVNTECQETVQLLLERGADIDAVDIKSGRSPLIHAVENNSLSMVQLLLQHGANVNAQMYSGSSALHSASGRGLLPLVRTLVRSGADSSLKNCHNDTPLMVARSRRVIDILRGKATRPASTSQPDPSPDRSANTSPESSSRLSSNGLLSASPSSSPSQSPPRDPPGFPMAPPNFFLPSPSPPAFLPFAGVLRGPGRPVPPSPAPGGS
B2: endogenous Bcl-3 (protein, UniProt P20749 1-454)
chain: B1 chain

Tests used:
HA-Raptor = HA-Raptor (UniProt Q8N122); experiment: co-IP; Flag-Bcl-3 and HA-Raptor co-transfected into HEK293T cells, lysed 48 h later in IP lysis buffer; anti-Flag or anti-HA agarose beads, 4°C overnight; beads washed four times; Western blot
[1] = molecular target: endogenous Raptor (human (endogenous in 293T)) (UniProt Q8N122); experiment: co-IP; endogenous proteins in 293T lysate; anti-Bcl-3 or anti-Raptor antibody (5 µg), mouse purified IgG as negative control; Western blot

Binder	binding (HA-Raptor)	binding [1]
B1	binds	–
B2	–	binds
